Results taken from PMC9344728.
No constants are given. Whether binding was seen depends on the method and setting. In cells and extracts the contact can be indirect. Some results given as binding are weak or reduced against the parent protein; the word gives no strength.

Chains of the proteins cited; added tags and fusions are not shown. Residues count along the entry.
UniProt P35869, residues 11-848: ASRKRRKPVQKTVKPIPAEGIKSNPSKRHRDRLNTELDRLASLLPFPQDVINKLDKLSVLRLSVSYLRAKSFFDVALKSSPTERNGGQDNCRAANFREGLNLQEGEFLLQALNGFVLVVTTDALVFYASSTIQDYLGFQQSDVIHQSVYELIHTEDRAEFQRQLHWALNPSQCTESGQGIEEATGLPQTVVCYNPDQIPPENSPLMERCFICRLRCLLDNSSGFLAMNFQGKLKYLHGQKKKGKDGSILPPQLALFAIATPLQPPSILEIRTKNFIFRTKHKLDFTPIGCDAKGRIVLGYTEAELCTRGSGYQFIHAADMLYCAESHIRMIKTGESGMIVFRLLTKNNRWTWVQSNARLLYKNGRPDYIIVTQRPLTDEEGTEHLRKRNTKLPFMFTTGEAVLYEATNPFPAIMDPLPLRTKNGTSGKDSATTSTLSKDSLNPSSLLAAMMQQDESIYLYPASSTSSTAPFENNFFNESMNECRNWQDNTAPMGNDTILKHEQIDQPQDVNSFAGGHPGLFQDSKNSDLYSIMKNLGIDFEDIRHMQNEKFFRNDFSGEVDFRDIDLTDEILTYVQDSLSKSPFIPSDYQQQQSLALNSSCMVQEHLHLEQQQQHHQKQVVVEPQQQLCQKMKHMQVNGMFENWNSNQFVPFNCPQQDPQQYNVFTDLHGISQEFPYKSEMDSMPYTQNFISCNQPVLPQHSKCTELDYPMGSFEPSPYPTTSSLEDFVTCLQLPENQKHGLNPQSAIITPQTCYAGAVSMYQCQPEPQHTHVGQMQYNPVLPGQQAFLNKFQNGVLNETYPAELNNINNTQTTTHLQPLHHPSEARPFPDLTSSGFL

Target: aryl hydrocarbon receptor (UniProt P35869)
Experiment: co-IP; HEK293T cell lysate (IP lysis buffer, 200 ug protein) incubated with protein G magnetic beads and 2 ug anti-AhR antibody or IgG (NC) at 4 °C for 4 h; western blot with anti-UCHL3

B1: ubiquitin C-terminal hydrolase L3 (enzyme, UniProt P15374 1-230)
chain: MEGQRWLPLEANPEVTNQFLKQLGLHPNWQFVDVYGMDPELLSMVPRPVCAVLLLFPITEKYEVFRTEEEEKIKSQGQDVTSSVYFMKQTISNACGTIGLIHAIANNKDKMHFESGSTLKKFLEESVSMSPEERARYLENYDAIRVTHETSAHEGQTEAPSIDEKVDLHFIALVHVDGHLYELDGRKPFPINHGETSDETLLEDAIEVCKKFMERDPDELRFNAIALSAA
- binding: binds
